Tested on: HepG2 cells
Assay: Cellular content of adenine and cordycepin nucleotides by LC-MS
Assay type: cell-based, human
Settings: 100 μM cordycepin, time course
Protocol: After treatment, cells for nucleotide analysis were lysed in 70% perchloric acid and the acid extracted as described previously ([Hawley et al., 2010]). The levels of AMP, ADP, ATP, CoMP, CoDP and CoTP were measured using a TSQ Quantiva (with an ion Max NG source) interfaced with an Ultimate 3000 Liquid Chromatography system (ThermoScientific). Separation of all compounds was achieved using a porous graphitic carbon column (HyperCarb 30x1 mm ID […]; Part No: C-35003-031030, Thermo-Scientific) as described previously ([Ross et al., 2017]) with some modifications. Mobile phase buffer A consisted of 0.3% (v/v) formic acid adjusted to pH 9 with ammonia prior to a 1:10 dilution. Mobile phase buffer B was 80% (v/v) acetonitrile. The column was maintained at a controlled temperature of 40°C and equilibrated with 10% buffer B for 5 min at a constant flow rate of 0.05 mL/min. […] Levels of ATP, ADP and AMP were measured using multiple reactions monitoring mode (MRM) with transitions described previously ([Ross et al., 2017]). For CoMP, CoDP and CoTP, optimised collision energies and radio frequencies were determined by infusing the pure compounds. […]

**Q.** For `Nc1ncnc2c1ncn2[C@@H]1O[C@H](CO)C[C@H]1O` [cordycepin, 3′-deoxyadenosine], which “time of maximum of cellular cordycepin nucleotides” value is on record?
**A.** Its value is 1 to 2 h.

**Q.** And the “time of peak decrease in cellular adenine nucleotides” value?
**A.** Its value is 2 h.
